These are yes or no findings as the source states them, for the method shown. Binding seen in cells or lysates may run through a third protein. Some entries that bind do so weakly or less than the wild type. For part of these data: Tags and fused reporters may be left off the sequences shown.
Experiments:
[1] = molecular target: T1, TRPS1, ectopically overexpressed in MDA-MB-231 cells (UniProt Q9UHF7); experiment: co-IP; Co-IP from MDA-MB-231 cells with ectopically overexpressed TRPS1; western blot
T1 sequence: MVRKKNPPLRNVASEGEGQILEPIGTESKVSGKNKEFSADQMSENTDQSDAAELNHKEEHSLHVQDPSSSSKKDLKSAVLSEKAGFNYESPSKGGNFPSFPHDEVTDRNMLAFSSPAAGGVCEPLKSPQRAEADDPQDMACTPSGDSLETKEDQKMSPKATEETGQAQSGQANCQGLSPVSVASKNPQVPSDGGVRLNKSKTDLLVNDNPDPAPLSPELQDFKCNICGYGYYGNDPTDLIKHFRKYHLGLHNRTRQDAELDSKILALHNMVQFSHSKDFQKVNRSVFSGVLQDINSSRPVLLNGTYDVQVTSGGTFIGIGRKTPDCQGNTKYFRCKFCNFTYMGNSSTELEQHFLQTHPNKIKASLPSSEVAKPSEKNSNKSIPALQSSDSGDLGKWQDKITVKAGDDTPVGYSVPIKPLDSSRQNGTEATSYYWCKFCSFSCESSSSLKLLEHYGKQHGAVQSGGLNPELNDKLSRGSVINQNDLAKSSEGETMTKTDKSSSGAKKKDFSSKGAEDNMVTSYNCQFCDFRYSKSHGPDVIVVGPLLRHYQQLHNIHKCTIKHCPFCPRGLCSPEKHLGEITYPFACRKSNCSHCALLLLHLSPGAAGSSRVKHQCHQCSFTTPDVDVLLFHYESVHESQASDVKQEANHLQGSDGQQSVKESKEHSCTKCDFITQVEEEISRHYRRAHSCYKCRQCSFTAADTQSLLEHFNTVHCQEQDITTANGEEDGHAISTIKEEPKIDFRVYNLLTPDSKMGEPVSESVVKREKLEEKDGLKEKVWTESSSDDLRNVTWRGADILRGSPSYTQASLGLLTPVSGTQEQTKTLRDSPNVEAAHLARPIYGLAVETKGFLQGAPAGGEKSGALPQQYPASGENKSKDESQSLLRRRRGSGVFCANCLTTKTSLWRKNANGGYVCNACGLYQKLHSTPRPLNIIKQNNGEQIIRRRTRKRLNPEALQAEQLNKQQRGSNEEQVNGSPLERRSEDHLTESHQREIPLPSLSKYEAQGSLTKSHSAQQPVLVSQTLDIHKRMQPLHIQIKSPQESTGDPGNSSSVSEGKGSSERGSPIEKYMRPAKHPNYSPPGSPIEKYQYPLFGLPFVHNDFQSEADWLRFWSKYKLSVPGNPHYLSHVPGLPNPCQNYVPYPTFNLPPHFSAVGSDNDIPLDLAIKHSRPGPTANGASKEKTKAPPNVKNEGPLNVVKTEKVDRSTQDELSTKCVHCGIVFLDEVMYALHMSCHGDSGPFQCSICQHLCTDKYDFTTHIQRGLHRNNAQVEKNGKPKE

Amino acid sequences for entries named in this document (tags omitted).
UniProt Q14839: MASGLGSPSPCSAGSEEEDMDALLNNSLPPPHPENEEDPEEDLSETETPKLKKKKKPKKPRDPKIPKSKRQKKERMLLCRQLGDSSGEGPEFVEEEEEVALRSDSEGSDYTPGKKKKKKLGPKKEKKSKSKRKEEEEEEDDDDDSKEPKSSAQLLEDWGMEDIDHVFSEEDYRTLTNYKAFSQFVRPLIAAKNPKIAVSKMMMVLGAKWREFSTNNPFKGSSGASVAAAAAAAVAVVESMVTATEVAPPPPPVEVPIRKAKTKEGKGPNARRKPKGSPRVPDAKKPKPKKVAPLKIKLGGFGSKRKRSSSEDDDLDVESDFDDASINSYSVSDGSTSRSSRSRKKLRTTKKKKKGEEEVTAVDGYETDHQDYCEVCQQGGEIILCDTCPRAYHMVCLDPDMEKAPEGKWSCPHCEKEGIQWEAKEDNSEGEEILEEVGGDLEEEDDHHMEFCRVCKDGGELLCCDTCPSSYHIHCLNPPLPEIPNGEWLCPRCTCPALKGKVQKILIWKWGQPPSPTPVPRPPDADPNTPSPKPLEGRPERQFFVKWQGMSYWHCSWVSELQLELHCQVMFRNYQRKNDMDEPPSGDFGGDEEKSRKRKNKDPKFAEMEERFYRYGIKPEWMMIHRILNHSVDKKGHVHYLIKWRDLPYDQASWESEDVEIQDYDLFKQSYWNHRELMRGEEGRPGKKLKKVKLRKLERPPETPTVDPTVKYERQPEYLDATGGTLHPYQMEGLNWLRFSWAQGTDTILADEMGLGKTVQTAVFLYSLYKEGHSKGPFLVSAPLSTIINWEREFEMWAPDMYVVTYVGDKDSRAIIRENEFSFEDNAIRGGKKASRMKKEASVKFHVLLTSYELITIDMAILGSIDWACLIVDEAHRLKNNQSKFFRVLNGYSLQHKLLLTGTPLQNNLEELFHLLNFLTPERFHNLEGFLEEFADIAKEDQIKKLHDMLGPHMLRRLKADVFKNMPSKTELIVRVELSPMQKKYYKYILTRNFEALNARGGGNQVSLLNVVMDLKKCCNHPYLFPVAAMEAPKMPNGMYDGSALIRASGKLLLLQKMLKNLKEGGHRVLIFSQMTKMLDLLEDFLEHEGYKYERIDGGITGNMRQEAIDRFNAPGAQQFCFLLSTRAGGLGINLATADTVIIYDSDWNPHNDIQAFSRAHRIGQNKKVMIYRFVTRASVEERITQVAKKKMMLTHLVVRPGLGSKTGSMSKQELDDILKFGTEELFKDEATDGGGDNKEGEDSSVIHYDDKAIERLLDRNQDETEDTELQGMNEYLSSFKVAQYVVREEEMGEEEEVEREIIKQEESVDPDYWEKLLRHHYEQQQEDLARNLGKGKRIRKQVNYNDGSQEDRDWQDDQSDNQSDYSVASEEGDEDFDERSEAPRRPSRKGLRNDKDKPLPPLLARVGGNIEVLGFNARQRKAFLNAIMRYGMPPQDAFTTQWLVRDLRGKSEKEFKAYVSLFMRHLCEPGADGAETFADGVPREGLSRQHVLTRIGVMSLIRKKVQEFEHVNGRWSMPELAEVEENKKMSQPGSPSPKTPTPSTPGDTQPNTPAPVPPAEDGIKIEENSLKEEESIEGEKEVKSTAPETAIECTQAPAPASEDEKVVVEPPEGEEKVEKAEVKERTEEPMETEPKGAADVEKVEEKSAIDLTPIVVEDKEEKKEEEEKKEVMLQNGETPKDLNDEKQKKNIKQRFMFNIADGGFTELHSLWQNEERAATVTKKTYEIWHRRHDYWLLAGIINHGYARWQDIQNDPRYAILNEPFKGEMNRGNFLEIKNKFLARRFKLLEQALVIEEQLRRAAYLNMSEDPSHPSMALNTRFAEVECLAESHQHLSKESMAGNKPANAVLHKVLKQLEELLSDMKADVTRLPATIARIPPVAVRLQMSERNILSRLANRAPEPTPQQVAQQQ
UniProt Q13547: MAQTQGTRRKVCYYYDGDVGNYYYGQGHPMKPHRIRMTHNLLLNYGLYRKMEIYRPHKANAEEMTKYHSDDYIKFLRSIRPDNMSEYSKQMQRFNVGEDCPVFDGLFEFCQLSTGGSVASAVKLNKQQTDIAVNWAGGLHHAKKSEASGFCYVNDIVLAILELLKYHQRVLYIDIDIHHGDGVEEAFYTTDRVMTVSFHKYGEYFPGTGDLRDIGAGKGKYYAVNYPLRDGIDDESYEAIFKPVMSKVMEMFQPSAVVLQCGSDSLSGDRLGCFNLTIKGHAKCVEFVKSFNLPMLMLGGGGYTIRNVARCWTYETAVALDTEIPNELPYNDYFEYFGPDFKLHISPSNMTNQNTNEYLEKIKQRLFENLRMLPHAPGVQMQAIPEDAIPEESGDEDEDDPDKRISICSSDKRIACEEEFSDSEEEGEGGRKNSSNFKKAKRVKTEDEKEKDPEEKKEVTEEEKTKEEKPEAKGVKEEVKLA
UniProt Q92769: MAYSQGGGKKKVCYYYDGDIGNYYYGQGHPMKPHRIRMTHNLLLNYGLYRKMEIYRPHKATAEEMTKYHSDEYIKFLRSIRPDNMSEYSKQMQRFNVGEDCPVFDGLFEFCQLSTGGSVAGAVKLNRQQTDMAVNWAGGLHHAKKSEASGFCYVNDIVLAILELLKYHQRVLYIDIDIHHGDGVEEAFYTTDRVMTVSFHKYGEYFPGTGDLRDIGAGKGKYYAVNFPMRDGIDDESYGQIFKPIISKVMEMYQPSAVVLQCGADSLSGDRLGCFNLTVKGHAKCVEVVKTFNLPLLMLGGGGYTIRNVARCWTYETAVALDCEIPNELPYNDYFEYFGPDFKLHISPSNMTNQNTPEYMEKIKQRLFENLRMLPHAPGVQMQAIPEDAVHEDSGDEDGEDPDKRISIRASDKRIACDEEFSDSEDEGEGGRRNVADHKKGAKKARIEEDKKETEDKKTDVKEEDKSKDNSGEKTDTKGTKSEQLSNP

[2] = molecular target: T2, Transcriptional repressor GATA binding 1 (TRPS1), endogenous (human (endogenous in T47D and MCF7)) (UniProt Q9UHF7); experiment: co-IP; endogenous Co-IP with anti-TRPS1 antibody (R&D systems) and Dynabeads Protein G, control polyclonal IgG; T47D and MCF7 cells; western blot
T2 sequence: T1 sequence

[3] = molecular target: T3, Flag-tagged full-length TRPS1 (UniProt Q9UHF7); experiment: co-IP; exogenous Co-IP: Flag-tagged TRPS1 or truncates transfected into 293T cells with PEI, lysed after 48 h, incubated with flag agarose; western blot of endogenous partners
T3 sequence: T1 sequence

binding [1] | binding [2] | binding [3] | Substance
binds | binds | binds | CHD4 (chromodomain helicase DNA-binding protein 4) (from UniProt Q14839 1-1912)
binds | binds | binds | HDAC1 (from UniProt Q13547 1-482)
binds | binds | binds | HDAC2 (from UniProt Q92769 1-488)

— article PMC6299095
